Experiment [1] has as its target GSK3β, endogenous (human (endogenous in Malme3M^R, SNU387^R, Malme3M)) (UniProt P49841). Briefly: co-IP; Malme3M cells transiently transfected with each CAGE construct (1 ug), lysates 48 h after transfection; antibody 2 ug/ml.
The target of experiment [2] is T1, Biotin-GTGKT peptide.
T1 sequence (peptide, biotin): GTGKT
Kind of experiment: co-IP; Malme3M cells transfected with full-length CAGE or each CAGE deletion construct, then treated with GTGKT peptide (Supplementary Figure 5A); only the target purified.

Amino acid sequences for entries named in this document (tags omitted).
UniProt P49841: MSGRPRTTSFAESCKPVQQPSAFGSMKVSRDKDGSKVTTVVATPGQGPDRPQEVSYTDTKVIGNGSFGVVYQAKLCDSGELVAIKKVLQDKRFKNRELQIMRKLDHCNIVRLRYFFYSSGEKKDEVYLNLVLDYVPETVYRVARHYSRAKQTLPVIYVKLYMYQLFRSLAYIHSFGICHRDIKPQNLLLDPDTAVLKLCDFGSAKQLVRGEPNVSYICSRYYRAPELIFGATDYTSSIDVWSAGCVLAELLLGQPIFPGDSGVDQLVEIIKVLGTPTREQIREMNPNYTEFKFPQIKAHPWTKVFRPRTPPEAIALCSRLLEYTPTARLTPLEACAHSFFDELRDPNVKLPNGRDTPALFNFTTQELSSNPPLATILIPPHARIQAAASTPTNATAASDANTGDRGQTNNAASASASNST
UniProt Q86TM3: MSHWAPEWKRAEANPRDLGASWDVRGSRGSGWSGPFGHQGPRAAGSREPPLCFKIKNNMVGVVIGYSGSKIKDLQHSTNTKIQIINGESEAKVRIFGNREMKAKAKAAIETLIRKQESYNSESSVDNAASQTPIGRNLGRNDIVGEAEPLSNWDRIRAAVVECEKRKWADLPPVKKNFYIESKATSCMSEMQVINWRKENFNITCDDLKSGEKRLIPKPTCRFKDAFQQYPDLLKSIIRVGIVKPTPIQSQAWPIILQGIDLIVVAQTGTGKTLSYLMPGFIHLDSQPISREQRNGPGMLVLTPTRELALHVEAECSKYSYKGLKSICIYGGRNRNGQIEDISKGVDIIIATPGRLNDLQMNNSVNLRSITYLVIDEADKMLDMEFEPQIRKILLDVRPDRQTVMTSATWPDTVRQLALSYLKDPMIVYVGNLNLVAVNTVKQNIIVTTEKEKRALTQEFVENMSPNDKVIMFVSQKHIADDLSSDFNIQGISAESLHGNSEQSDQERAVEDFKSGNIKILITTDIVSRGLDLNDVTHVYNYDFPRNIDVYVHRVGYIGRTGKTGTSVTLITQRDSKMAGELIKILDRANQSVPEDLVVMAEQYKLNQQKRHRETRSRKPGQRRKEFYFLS

Experiment [3] addresses T1, Biotin-GTGKT peptide. Kind of experiment: co-IP; printed as '(data shown)'; biotin-labeled GTGKT peptide in Malme3M^R cells; only the target purified.
Experiment [4] deals with T1, Biotin-GTGKT peptide. Kind of experiment: co-IP; biotin-GTGKT peptide (10 uM) brought into Malme3M^R-Taxol cells for 48 h; whole-cell extracts incubated with anti-biotin antibody (2 ug/ml) 12 h at 4 C, precipitated with streptavidin-linked agarose beads, Western blot; only the target purified. For orientation: In western blotting, separated proteins are transferred to a membrane and probed.

Experiment [5] deals with GSK3β, endogenous (human (endogenous in Malme3M^R, SNU387^R, Malme3M)) (UniProt P49841). Kind of experiment: co-IP; lysates of xenograft or lung-metastasis tumours (Malme3M^R, SNU387^R) from nude mice injected with peptide (10 or 50 ug/mouse); antibody 2 ug/ml.
Experiment [6] has the same target. Briefly: co-IP; endogenous proteins, lysates of Malme3M^R, SNU387^R or Malme3M^R-Taxol cells treated with the indicated peptide (10 uM) for 48 h; antibody 2 ug/ml.
Experiment [7] shares this target. Briefly: co-IP; endogenous proteins, cell lysates (Malme3M^R; also Malme3M transfected with miR-200b inhibitor); 50 mM HEPES pH 7.6, 150 mM NaCl, 5 mM EDTA, 0.1% Nonidet P-40; antibody 2 ug/ml, protein A/G-Sepharose, 4 C.
The target is the same in experiment [8]. Kind of experiment: co-IP; data not shown; endogenous proteins in SNU387^R cells.

No constants are given. Whether binding was seen depends on the method and setting. In cells and extracts the contact can be indirect. Some binding calls cover weakened binding; strength is not graded here.

Consider “Full-length wild type CAGE (G-T-G-K-T), transfected construct (from UniProt Q86TM3 1-631)”, for which the binding result (in experiment [1]; in the experiment with Biotin-GTGKT peptide [2]) was “binds” each time.

Turning to “GSK3β, endogenous (from UniProt P49841 1-420)”, the figures for the binding entry with Biotin-GTGKT peptide [3], with Biotin-GTGKT peptide [4] and with Biotin-GTGKT peptide [2] were “no binding”, “no binding (tested: 10 μM)” and “no binding”, respectively.

With “CAGE (cancer/testis antigen CAGE), endogenous (from UniProt Q86TM3 1-631)”, the binding entry (in experiment [5]; in experiment [6]; in the experiment with Biotin-GTGKT peptide [3]; in the experiment with Biotin-GTGKT peptide [4]; in experiment [7]; in experiment [8]) was “binds” throughout.
